Experimental data from PMC5076532.
No constants are given. Whether binding was seen depends on the method and setting. Some results given as binding are weak or reduced against the parent protein; the word gives no strength.

By UniProt entry, the sequences of proteins in these tests, tags left out. Where a name states a change or a piece, a line headed by the entry shows the natural chain unless it says otherwise. Chains listed by the source or under a name are the forms on record and can include a tag or linker.
UniProt Q62717: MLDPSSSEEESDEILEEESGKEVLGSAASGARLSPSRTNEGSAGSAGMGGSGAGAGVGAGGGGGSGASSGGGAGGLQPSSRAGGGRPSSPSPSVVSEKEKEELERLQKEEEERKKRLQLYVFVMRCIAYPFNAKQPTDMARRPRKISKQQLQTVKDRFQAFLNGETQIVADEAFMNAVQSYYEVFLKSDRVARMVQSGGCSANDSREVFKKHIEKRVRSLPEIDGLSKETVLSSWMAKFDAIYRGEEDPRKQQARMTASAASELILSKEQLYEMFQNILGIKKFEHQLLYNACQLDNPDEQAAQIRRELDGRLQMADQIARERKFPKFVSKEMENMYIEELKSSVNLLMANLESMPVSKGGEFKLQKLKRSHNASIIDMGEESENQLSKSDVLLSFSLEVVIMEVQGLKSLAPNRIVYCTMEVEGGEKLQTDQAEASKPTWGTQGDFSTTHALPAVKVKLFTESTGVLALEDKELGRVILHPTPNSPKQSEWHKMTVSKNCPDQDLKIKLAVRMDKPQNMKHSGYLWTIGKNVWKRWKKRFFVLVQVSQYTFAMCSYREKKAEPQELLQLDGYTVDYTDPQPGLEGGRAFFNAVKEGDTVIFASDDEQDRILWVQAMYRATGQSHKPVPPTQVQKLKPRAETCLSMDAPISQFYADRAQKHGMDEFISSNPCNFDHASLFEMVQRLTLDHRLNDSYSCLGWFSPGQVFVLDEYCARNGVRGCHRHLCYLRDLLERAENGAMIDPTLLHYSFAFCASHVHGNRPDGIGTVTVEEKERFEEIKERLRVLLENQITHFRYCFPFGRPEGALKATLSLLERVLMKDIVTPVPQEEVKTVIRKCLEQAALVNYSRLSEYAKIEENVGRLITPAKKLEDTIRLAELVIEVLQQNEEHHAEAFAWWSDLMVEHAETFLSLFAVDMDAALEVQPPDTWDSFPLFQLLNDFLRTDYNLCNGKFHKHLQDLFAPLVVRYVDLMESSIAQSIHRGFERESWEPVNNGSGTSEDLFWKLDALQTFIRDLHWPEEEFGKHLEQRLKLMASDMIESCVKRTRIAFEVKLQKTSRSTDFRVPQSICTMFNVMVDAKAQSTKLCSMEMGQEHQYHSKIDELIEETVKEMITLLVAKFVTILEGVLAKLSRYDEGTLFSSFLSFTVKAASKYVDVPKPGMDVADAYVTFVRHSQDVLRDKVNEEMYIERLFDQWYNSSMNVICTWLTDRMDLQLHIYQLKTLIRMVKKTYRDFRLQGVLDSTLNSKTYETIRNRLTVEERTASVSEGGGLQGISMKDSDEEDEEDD
CAPS(ΔC2)-Myc-His (Q62717, form named): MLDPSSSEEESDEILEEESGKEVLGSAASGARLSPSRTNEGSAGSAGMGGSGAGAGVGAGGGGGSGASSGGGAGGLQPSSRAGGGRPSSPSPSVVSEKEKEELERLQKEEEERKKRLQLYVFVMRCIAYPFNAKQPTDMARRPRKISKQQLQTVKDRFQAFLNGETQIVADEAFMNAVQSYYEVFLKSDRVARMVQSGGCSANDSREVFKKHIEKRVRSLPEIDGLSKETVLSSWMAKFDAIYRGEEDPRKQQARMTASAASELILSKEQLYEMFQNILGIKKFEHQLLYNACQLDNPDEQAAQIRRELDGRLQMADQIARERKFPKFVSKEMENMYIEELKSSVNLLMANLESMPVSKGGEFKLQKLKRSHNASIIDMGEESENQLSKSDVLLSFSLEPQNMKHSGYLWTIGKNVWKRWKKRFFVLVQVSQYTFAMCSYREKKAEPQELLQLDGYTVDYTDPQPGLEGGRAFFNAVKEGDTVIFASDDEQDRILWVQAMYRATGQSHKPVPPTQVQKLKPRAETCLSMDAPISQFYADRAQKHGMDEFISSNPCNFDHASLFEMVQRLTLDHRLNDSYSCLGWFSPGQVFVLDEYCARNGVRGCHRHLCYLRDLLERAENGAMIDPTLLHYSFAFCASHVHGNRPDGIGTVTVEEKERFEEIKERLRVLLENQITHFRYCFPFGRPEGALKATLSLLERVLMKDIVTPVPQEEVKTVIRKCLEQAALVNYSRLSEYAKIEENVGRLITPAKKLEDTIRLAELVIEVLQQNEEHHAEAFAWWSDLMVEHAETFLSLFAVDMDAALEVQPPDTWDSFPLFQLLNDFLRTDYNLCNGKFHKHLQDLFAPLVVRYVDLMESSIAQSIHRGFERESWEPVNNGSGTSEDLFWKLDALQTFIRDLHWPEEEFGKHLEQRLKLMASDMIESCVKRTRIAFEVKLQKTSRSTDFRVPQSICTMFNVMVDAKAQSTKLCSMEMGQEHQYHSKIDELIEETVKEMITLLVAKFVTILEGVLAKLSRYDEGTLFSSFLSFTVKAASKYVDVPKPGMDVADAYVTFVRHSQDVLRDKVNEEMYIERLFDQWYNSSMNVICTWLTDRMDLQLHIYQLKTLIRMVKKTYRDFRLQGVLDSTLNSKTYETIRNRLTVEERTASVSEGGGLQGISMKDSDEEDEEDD

Tests used:
[1] = molecular target: native CAPS of PC12 cells (cytosolic and membrane-bound) (rat (endogenous in PC12)) (UniProt Q62717); assay: native gel or EMSA; CN-PAGE of the 300 mM NaCl (high salt) extract of washed permeable PC12 cells (cell ghosts), Western blot with CAPS antibody
[2] = molecular target: CAPS-Myc-His (recombinant wild-type rat CAPS) (Rattus norvegicus) (UniProt Q62717); assay: SEC; Sephacryl-300 by FPLC; fractions analysed by clear native gels and immunoblotting, at once and after 24 h on ice; both purified
[3] = molecular target: CAPS(ΔC2)-Myc-His (Rattus norvegicus) (UniProt Q62717); assay: native gel or EMSA; blue native (BN-PAGE, 5-14% or 6-14%) or clear native (CN-PAGE, 6%, 4 °C) gels of purified soluble protein without lipid; Coomassie or Western blot (CAPS or Myc antibody); 20 mM HEPES, 10 mM NaCl, 10 mM imidazole, 5% glycerol, pH 7.4 for CN-PAGE; both purified

native CAPS of PC12 cells (cytosolic and membrane-bound) (from UniProt Q62717 1-1289)
binding [1]: binds

CAPS-Myc-His (recombinant wild-type rat CAPS) (from UniProt Q62717 1-1289)
binding [2]: binds weakly

CAPS(ΔC2)-Myc-His (from UniProt Q62717 1-1289)
binding [3]: binds weakly
